# Cleaved PARP in drug-treated melanoma cells

Source: doi:10.1371/journal.pone.0140310, primary screening data, rounded.

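Human melanoma cell lines in 1,536-well plates were treated with a pair of drugs for 72 h, then fixed, stained and imaged. The read-out is the fraction of cleaved-PARP-positive nuclei, in % of that fraction in the DMSO control; 200 means twice the control level of this apoptosis marker. Every drug was used at one fixed concentration, the higher of two screened. No replicate spread is given; individual values may be noisy. The marker varies much from line to line, for technical or biological reasons.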
Only some of the drugs and lines screened are listed, without regard to their results.
An entry leaves out what has no value listed here.
A dash means that no value is listed here.

Drugs:
PD173074: CCN(CC)CCCCNc1ncc2cc(-c3cc(OC)cc(OC)c3)c(NC(=O)NC(C)(C)C)nc2n1 at 0.5 µM
GW441756: Cn1cc(/C=C2\C(=O)Nc3cccnc32)c2ccccc21 at 2 µM
A-769662: N#Cc1c(O)c2c(-c3ccc(-c4ccccc4O)cc3)csc2[nH]c1=O at 10 µM
decitabine: Nc1ncn([C@H]2C[C@H](O)[C@@H](CO)O2)c(=O)n1 at 0.5 µM
midostaurin: CO[C@@H]1[C@H](N(C)C(=O)c2ccccc2)C[C@H]2O[C@]1(C)n1c3ccccc3c3c4c(c5c6ccccc6n2c5c31)C(=O)NC4 at 0.4 µM
bexarotene: C=C(c1ccc(C(=O)O)cc1)c1cc2c(cc1C)C(C)(C)CCC2(C)C at 10 µM
SNS-032: CC(C)(C)c1cnc(CSc2cnc(NC(=O)C3CCNCC3)s2)o1 at 0.05 µM
sorafenib: CNC(=O)c1cc(Oc2ccc(NC(=O)Nc3ccc(Cl)c(C(F)(F)F)c3)cc2)ccn1 at 2 µM
pazopanib: Cc1ccc(Nc2nccc(N(C)c3ccc4c(C)n(C)nc4c3)n2)cc1S(N)(=O)=O at 2 µM
VX-702: NC(=O)c1ccc(N(C(N)=O)c2c(F)cccc2F)nc1-c1ccc(F)cc1F at 2 µM
CHIR-265: Cn1c(Nc2ccc(C(F)(F)F)cc2)nc2cc(Oc3ccnc(-c4ncc(C(F)(F)F)[nH]4)c3)ccc21 at 0.4 µM
GSK650394: O=C(O)c1ccc(-c2c[nH]c3ncc(-c4ccccc4)cc23)cc1C1CCCC1 at 0.8 µM
enzastaurin: Cn1cc(C2=C(c3cn(C4CCN(Cc5ccccn5)CC4)c4ccccc34)C(=O)NC2=O)c2ccccc21 at 4 µM
docetaxel: CC(=O)O[C@@]12CO[C@@H]1C[C@H](O)[C@@]1(C)C(=O)[C@H](O)C3=C(C)[C@@H](OC(=O)[C@H](O)[C@@H](NC(=O)OC(C)(C)C)c4ccccc4)C[C@@](O)([C@@H](OC(=O)c4ccccc4)[C@H]21)C3(C)C at 0.0005 µM
PLX4720: CCCS(=O)(=O)Nc1ccc(F)c(C(=O)c2c[nH]c3ncc(Cl)cc23)c1F at 0.4 µM
MK-2206: NC1(c2ccc(-c3nc4ccn5c(=O)[nH]nc5c4cc3-c3ccccc3)cc2)CCC1 at 2 µM

Pair,WM1716,IST-MEL1,501mel,LB2518-MEL,WM3619,RPMI-7951,MEL-HO,WM451Lu,MZ2-MEL,MeWo,COLO 829,C32
VX-702 and pazopanib,96.2,135,-,47.7,95.9,28.3,162,75.6,64.3,85.5,144,80.8
docetaxel and bexarotene,888,115,-,131,167,359,90.3,493,1330,654,455,358
GSK650394 and PD173074,65.6,106,88.0,123,129,141,132,136,73.0,74.7,57.1,75.0
MK-2206 and decitabine,107,69.0,-,46.0,105,100,110,88.9,37.2,37.9,130,136
PLX4720 and enzastaurin,130,72.4,-,71.4,94.2,161,119,233,143,119,110,51.1
decitabine and GSK650394,103,243,-,62.6,132,381,293,150,110,303,203,102
MK-2206 and A-769662,51.1,90.4,102,161,99.7,96.7,60.1,346,134,79.5,273,87.7
bexarotene and pazopanib,76.5,111,-,232,101,115,33.9,55.0,208,49.1,164,177
docetaxel and decitabine,958,177,-,298,294,178,203,276,649,1280,464,753
PD173074 and sorafenib,46.1,362,98.2,119,72.6,106,150,60.0,82.6,89.5,71.8,63.7
PLX4720 and GW441756,94.4,167,85.5,99.2,102,53.0,274,221,48.8,87.8,123,82.3
pazopanib and enzastaurin,89.1,28.3,-,57.3,84.4,329,103,51.3,36.2,155,98.7,79.3
decitabine and PD173074,67.3,113,313,231,78.7,60.5,97.9,383,82.9,133,139,163
CHIR-265 and enzastaurin,335,84.7,-,1000,167,450,149,372,128,120,254,144
GSK650394 and VX-702,87.2,75.1,-,110,287,53.0,82.2,110,139,104,51.7,50.1
GSK650394 and bexarotene,144,61.9,-,228,225,221,88.4,146,108,332,105,101
sorafenib and decitabine,156,128,-,219,114,69.1,47.1,164,212,143,181,94.5
GSK650394 and A-769662,74.6,77.4,43.9,71.5,127,47.0,53.3,65.7,150,85.7,40.3,111
pazopanib and SNS-032,127,89.1,-,58.3,111,181,69.5,152,148,89.3,78.7,116
GW441756 and midostaurin,80.9,66.5,34.6,258,142,138,110,133,139,168,160,91.3
CHIR-265 and A-769662,77.4,93.2,138,581,175,342,148,346,102,102,312,255
midostaurin and enzastaurin,1240,280,-,94.8,121,453,97.6,267,332,242,295,164
midostaurin and SNS-032,281,108,-,101,188,233,102,202,1110,169,301,584
docetaxel and GW441756,341,116,163,397,161,245,155,2910,650,511,141,120
decitabine and CHIR-265,30.3,126,-,180,147,300,136,126,195,141,185,133
midostaurin and GSK650394,139,253,-,50.3,125,128,126,164,270,124,64.3,178
CHIR-265 and SNS-032,167,164,-,424,219,146,108,1300,609,138,176,347
PLX4720 and A-769662,136,151,63.3,110,81.0,41.5,186,211,99.6,110,125,96.0
pazopanib and CHIR-265,41.7,258,-,504,339,252,84.5,83.8,111,114,238,52.2
enzastaurin and decitabine,132,76.7,-,61.7,86.2,79.4,84.1,851,580,208,195,90.4
MK-2206 and sorafenib,21.7,61.4,-,188,121,67.9,83.5,29.6,134,40.2,127,67.2
VX-702 and sorafenib,77.5,69.5,-,88.3,118,58.7,40.4,337,108,86.0,99.6,94.5
VX-702 and docetaxel,419,185,-,268,159,552,112,293,438,742,734,392
MK-2206 and GW441756,24.7,103,81.2,398,128,67.0,106,84.3,85.1,24.6,91.7,101

Repeated from the top, 4 entries:

* VX-702 and pazopanib | WM1716: 96.2; IST-MEL1: 135; LB2518-MEL: 47.7; WM3619: 95.9; RPMI-7951: 28.3; MEL-HO: 162; WM451Lu: 75.6; MZ2-MEL: 64.3; MeWo: 85.5; COLO 829: 144; C32: 80.8
* docetaxel and bexarotene | WM1716: 888; IST-MEL1: 115; LB2518-MEL: 131; WM3619: 167; RPMI-7951: 359; MEL-HO: 90.3; WM451Lu: 493; MZ2-MEL: 1330; MeWo: 654; COLO 829: 455; C32: 358
* GSK650394 and PD173074 | WM1716: 65.6; IST-MEL1: 106; 501mel: 88.0; LB2518-MEL: 123; WM3619: 129; RPMI-7951: 141; MEL-HO: 132; WM451Lu: 136; MZ2-MEL: 73.0; MeWo: 74.7; COLO 829: 57.1; C32: 75.0
* MK-2206 and decitabine | WM1716: 107; IST-MEL1: 69.0; LB2518-MEL: 46.0; WM3619: 105; RPMI-7951: 100; MEL-HO: 110; WM451Lu: 88.9; MZ2-MEL: 37.2; MeWo: 37.9; COLO 829: 130; C32: 136